Among the data in publication PMC10954720 are binding values, retold here.

No constants are given. Whether binding was seen depends on the method and setting. For some assays here: Binding seen in cells or lysates may run through a third protein. Some results given as binding are weak or reduced against the parent protein; the word gives no strength.

The target in test [1] is T1, Rabenosyn-5 (human (endogenous in HeLa)) (UniProt Q9H1K0).
T1 sequence: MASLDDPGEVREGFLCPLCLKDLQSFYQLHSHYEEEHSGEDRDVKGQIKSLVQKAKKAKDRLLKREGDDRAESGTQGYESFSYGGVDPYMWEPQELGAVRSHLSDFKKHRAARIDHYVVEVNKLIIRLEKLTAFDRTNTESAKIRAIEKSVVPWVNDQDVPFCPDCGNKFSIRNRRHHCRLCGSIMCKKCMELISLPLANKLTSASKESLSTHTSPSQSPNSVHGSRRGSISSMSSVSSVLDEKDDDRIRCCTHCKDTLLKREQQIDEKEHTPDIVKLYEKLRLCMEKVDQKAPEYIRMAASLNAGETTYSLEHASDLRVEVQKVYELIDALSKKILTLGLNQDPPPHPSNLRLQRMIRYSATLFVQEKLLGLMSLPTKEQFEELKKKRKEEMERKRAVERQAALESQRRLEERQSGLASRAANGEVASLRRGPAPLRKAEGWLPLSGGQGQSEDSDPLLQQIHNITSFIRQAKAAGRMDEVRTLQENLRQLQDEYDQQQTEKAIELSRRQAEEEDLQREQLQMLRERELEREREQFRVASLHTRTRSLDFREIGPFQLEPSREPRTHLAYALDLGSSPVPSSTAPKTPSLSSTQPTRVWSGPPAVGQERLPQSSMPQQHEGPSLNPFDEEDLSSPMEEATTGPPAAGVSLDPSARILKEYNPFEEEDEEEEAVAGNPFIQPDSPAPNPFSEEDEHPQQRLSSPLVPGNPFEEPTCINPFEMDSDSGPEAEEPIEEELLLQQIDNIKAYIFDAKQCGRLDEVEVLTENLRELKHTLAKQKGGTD
Description: co-IP; immunodepletion: HeLa cytosol fractions incubated with primary antibody against the respective PtdIns(3)P binding protein or control IgG overnight at 4 °C, antibody-protein complex removed with Protein A Sepharose; depleted cytosol immunoblotted (co-depletion). On the technique in general: Immunoblotting shows a protein as a band on a membrane.

For test [2], the target named is T2, syntaxin 6 (Rattus norvegicus) (UniProt Q63635).
T2 sequence: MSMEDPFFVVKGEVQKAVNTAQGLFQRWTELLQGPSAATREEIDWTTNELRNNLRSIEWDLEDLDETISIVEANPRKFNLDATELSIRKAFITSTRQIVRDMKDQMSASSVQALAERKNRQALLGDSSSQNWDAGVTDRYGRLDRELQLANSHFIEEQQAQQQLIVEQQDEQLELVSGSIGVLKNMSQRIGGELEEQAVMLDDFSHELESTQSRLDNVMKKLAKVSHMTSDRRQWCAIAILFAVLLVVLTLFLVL
Description: recruitment to proteoliposomes; syntaxin 6 liposomes with or without 1% PtdIns(3)P; method told only in Supplementary Fig. 2e; only the target purified.

B1: VPS45 (protein, UniProt Q9NRW7 1-570)
chain: MNVVFAVKQYISKMIEDSGPGMKVLLMDKETTGIVSMVYTQSEILQKEVYLFERIDSQNREIMKHLKAICFLRPTKENVDYIIQELRRPKYTIYFIYFSNVISKSDVKSLAEADEQEVVAEVQEFYGDYIAVNPHLFSLNILGCCQGRNWDPAQLSRTTQGLTALLLSLKKCPMIRYQLSSEAAKRLAECVKQVITKEYELFEFRRTEVPPLLLILDRCDDAITPLLNQWTYQAMVHELLGINNNRIDLSRVPGISKDLREVVLSAENDEFYANNMYLNFAEIGSNIKNLMEDFQKKKPKEQQKLESIADMKAFVENYPQFKKMSGTVSKHVTVVGELSRLVSERNLLEVSEVEQELACQNDHSSALQNIKRLLQNPKVTEFDAARLVMLYALHYERHSSNSLPGLMMDLRNKGVSEKYRKLVSAVVEYGGKRVRGSDLFSPKDAVAITKQFLKGLKGVENVYTQHQPFLHETLDHLIKGRLKENLYPYLGPSTLRDRPQDIIVFVIGGATYEEALTVYNLNRTTPGVRIVLGGTTVHNTKSFLEEVLASGLHSRSKESSQVTSRSASRR
For the molecule B1, in test [1], the binding entry is “binds”.

B2: Vps51 (protein, UniProt Q9UID3 1-782)
chain: MAAAAAAGPSPGSGPGDSPEGPEGEAPERRRKAHGMLKLYYGLSEGEAAGRPAGPDPLDPTDLNGAHFDPEVYLDKLRRECPLAQLMDSETDMVRQIRALDSDMQTLVYENYNKFISATDTIRKMKNDFRKMEDEMDRLATNMAVITDFSARISATLQDRHERITKLAGVHALLRKLQFLFELPSRLTKCVELGAYGQAVRYQGRAQAVLQQYQHLPSFRAIQDDCQVITARLAQQLRQRFREGGSGAPEQAECVELLLALGEPAEELCEEFLAHARGRLEKELRNLEAELGPSPPAPDVLEFTDHGGSGFVGGLCQVAAAYQELFAAQGPAGAEKLAAFARQLGSRYFALVERRLAQEQGGGDNSLLVRALDRFHRRLRAPGALLAAAGLADAATEIVERVARERLGHHLQGLRAAFLGCLTDVRQALAAPRVAGKEGPGLAELLANVASSILSHIKASLAAVHLFTAKEVSFSNKPYFRGEFCSQGVREGLIVGFVHSMCQTAQSFCDSPGEKGGATPPALLLLLSRLCLDYETATISYILTLTDEQFLVQDQFPVTPVSTLCAEARETARRLLTHYVKVQGLVISQMLRKSVETRDWLSTLEPRNVRAVMKRVVEDTTAIDVQVGLLYEEGVRKAQSSDSSKRTFSVYSSSRQQGRYAPSYTPSAPMDTNLLSNIQKLFSERIDVFSPVEFNKVSVLTGIIKISLKTLLECVRLRTFGRFGLQQVQVDCHFLQLYLWRFVADEELVHLLLDEVVASAALRCPDPVPMEPSVVEVICERG
On to B2, for which the binding result in test [2] was “binds”.
